No constants are given. Whether binding was seen depends on the method and setting. Binding can be weak; no strength is given. Where a sequence is shown, tags or fusion partners need not be part of it.
Molecular target: GST-tagged Gm4951 (mouse) (UniProt Q3UED7)
Experiment: pull-down; GST or GST-Gm4951 on glutathione agarose beads incubated with eluted purified 3xFlag-Hsd17b13 in GST pull-down buffer (20 mM Tris-Cl pH 8.0, 200 mM NaCl, 1 mM EDTA, 0.5% Nonidet P-40, PMSF), 4 °C, 2 h; Flag immunoblot; both purified

The chains behind the UniProt entries cited, without tags or fusion partners. Where a name states a change or a piece, a line headed by the entry shows the natural chain unless it says otherwise.
UniProt Q3UED7: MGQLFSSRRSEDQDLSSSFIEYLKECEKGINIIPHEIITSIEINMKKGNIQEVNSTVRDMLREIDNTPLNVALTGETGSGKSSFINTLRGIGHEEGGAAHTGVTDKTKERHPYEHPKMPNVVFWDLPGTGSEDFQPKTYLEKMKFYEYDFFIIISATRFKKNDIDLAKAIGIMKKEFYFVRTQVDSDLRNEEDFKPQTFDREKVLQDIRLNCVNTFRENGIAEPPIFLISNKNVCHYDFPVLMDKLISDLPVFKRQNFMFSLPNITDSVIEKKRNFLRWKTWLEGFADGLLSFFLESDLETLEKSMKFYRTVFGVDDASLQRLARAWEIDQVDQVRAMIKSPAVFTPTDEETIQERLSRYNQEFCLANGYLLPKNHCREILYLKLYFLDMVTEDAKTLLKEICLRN

binding: binds
B1: 3xFlag-tagged Hsd17b13 (mouse) from 293T cells (protein, UniProt Q8VCR2-2 20-300)
chain: ESLVKFFIPRRRKSVTGQTVLITGAGHGIGRLTAYEFAKQKSRLVLWDINKRGVEETADKCRKLGAVVHVFVVDCSNRAEIYNSVDQVKREVGDVEIVVNNAGAIYPADLLSAKDEEITKTFEVNILGHFWIIKALLPSMLRRNSGHIVTVASVCGHGVIPYLIPYCSSKFAAVGFHRALTAELDTLGKTGIQTSCLCPVFVNTGFTKNPSTRLWPVLEPEEVARSLINGILTNKKMIFVPSYINISLILEKFLPERALKAISRIQNIQFEAIVGHKTKMK
